Data on one compound can be found in paper PMC11532494 (Nature Communications, 2024).

Amino acid sequences for entries named in this document (tags omitted). Residues count along the entry.
UniProt A0A2N0XRJ0, 1-372: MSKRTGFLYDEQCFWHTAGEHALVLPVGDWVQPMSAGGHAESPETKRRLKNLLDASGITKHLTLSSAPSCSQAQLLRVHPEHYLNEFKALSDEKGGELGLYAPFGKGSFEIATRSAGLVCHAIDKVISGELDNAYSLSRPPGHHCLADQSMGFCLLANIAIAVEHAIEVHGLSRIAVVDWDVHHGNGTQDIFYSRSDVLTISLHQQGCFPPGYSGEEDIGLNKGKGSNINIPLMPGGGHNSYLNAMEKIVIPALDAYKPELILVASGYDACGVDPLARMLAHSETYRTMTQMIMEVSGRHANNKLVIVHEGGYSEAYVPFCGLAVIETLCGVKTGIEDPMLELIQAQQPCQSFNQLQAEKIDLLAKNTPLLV

Molecules are shown by their SMILES. Read-outs that look alike come from different tables or passages of the source.

The target in one test is (UniProt A0A2N0XRJ0). The test is described as follows: biochemical. The arrangement: species or system Vibrio sp. The following applies: for IC50: 60 µM QPKKac, 1.5 nM enzyme, 60 min, 37 °C.
Another test deals with HsHDAC11 (5f). The following applies: cited from earlier work.

What is called Ki is a measure of affinity in units of concentration, obtained from inhibition or displacement. Usually IC50 stands for the midpoint of a concentration-inhibition curve. For `O=C(CCCCCCC(=O)Nc1ccccc1)NO` [SAHA, suberoylanilide hydroxamic acid], at (UniProt A0A2N0XRJ0), the inhibition constant Ki amounted to 8.9 nM. Further, the IC50 was 2.03e-08 M at (UniProt A0A2N0XRJ0) (read-out: IC50) and 2.04e-08 M at (UniProt A0A2N0XRJ0) (decadic log of IC50, read-out: Log[IC50(M)] (converted)). In addition, the “inhibition of HsHDAC11 (5f), in words” value in the test with HsHDAC11 (5f) is “only weakly inhibited”.
